PubChem BioAssay AID602203 – INSERM – 2012
Here is an unselected part of 999 reagents tested. 85 of them (8.5%) were called active. 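Unclear how single-siRNA scores of -1, 0 or +1 give the printed -4 to 4 range; calls lie near -3 or 3 and beyond.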 Not given: the amount of reagent, the time to read-out, the dose of the treatment.

Test: 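Genes whose knock-down alters cisplatin killing of lung cancer cells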 (follow-up of hits)
System: human A549 lung cancer cells
Reagent: siRNA pair against human genes
Conditions: cisplatin at a dose killing half of control-siRNA cells, given 48 h after transfection
Measurement: 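Cisplatin at a dose killing 50% of control cells, 48 h post-transfection; each siRNA +1 protective, -1 sensitizing, 0 if toxic (LDH) or antiproliferative (WST-1); per-gene sum and mean death change versus control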
Reading the numbers: summed siRNA score for cisplatin death: higher = more siRNAs reduced cisplatin-induced cell death; change in cisplatin death versus control: higher = fewer cells died than in control
Units: change in cisplatin death versus control in percentage points
Hit rule: In these data the active calls have summed siRNA score for cisplatin death at about -3 or lower, or at about 3 or higher

Against LOC440236, the entry reads summed siRNA score for cisplatin death -1; inactive.
Depletion of LOC441641 came out at: summed siRNA score for cisplatin death 1; inactive.
FN3KRP gave summed siRNA score for cisplatin death 3; change in cisplatin death versus control 9.76; active.
After knock-down of ANKRD23, the record shows summed siRNA score for cisplatin death -2; inactive.
Depletion of ARSG resulted in: summed siRNA score for cisplatin death -1; inactive.
Knock-down of LOC391528 came out at: summed siRNA score for cisplatin death 0; inactive.
For OR52E5 the deposit lists summed siRNA score for cisplatin death 2; inactive.
After knock-down of PACSIN1, the screen gave summed siRNA score for cisplatin death 0; inactive.
For AK5, the entry reads summed siRNA score for cisplatin death -1; inactive.
RHOBTB2 showed summed siRNA score for cisplatin death 1; inactive.
After knock-down of SIGLEC12, the screen gave summed siRNA score for cisplatin death 1; inactive.
COX7A2 showed summed siRNA score for cisplatin death 1; inactive.
Silencing of GYS1 gave: summed siRNA score for cisplatin death -1; inactive.
With knock-down of LOC390801 the results were summed siRNA score for cisplatin death -1; inactive.
With knock-down of SWI5, the screen gave summed siRNA score for cisplatin death 1; inactive.
Against ADGRE4P, the values are summed siRNA score for cisplatin death 1; inactive.
Against FBLN7 the deposit lists summed siRNA score for cisplatin death 1; inactive.
MPP3 scored summed siRNA score for cisplatin death -2; inactive.
Against GLRX3, the entry reads summed siRNA score for cisplatin death 1; inactive.
For FAM230I, the entry reads summed siRNA score for cisplatin death 3; change in cisplatin death versus control 13.5; active.
LOC442669 scored summed siRNA score for cisplatin death 0; inactive.

Records listed above marked active, once more:
FN3KRP → summed siRNA score for cisplatin death: 3; change in cisplatin death versus control: 9.76; outcome: active
FAM230I → summed siRNA score for cisplatin death: 3; change in cisplatin death versus control: 13.5; outcome: active

The results go on:
RBKS scored summed siRNA score for cisplatin death 0; inactive.
Depletion of AKR7A3 gave: summed siRNA score for cisplatin death -1; inactive.
OGFRL1 scored summed siRNA score for cisplatin death 0; inactive.
Knock-down of DBP came out at: summed siRNA score for cisplatin death -2; inactive.
Depletion of GIT1 resulted in: summed siRNA score for cisplatin death 1; inactive.
Depletion of PLA2R1 gave: summed siRNA score for cisplatin death 0; inactive.
Depletion of TRIP4 gave: summed siRNA score for cisplatin death 3; change in cisplatin death versus control 19; active.
Against SEMA3C the deposit lists summed siRNA score for cisplatin death -3; change in cisplatin death versus control -6.36; active.
Depletion of BAZ2B resulted in: summed siRNA score for cisplatin death -1; inactive.
Knock-down of OR2T12 came out at: summed siRNA score for cisplatin death 0; inactive.
Depletion of LRRC4C gave: summed siRNA score for cisplatin death -2; inactive.
Knock-down of LOC401357 resulted in: summed siRNA score for cisplatin death 0; inactive.
After knock-down of ANKRD16, the screen gave summed siRNA score for cisplatin death -1; inactive.
For PPM1J the deposit lists summed siRNA score for cisplatin death -3; change in cisplatin death versus control -8.13; active.
CBR4 scored summed siRNA score for cisplatin death 2; inactive.
LINC01940 scored summed siRNA score for cisplatin death 1; inactive.
Depletion of LIPC resulted in: summed siRNA score for cisplatin death -3; change in cisplatin death versus control -13.8; active.
With knock-down of FFAR2, the screen gave summed siRNA score for cisplatin death -2; inactive.
Depletion of OGFRP1 resulted in: summed siRNA score for cisplatin death 1; inactive.
NUCB2 showed summed siRNA score for cisplatin death 0; inactive.
After knock-down of PIM2, the record shows summed siRNA score for cisplatin death 0; inactive.
LOC92235 scored summed siRNA score for cisplatin death -2; inactive.
Silencing of LOC442125 gave: summed siRNA score for cisplatin death 1; inactive.
Against FRAT2, the values are summed siRNA score for cisplatin death -1; inactive.
Depletion of FBXO42 gave: summed siRNA score for cisplatin death 3; change in cisplatin death versus control 13.5; active.
For KRT18P55, the entry reads summed siRNA score for cisplatin death 1; inactive.
